Results taken from PubChem BioAssay AID1671190 (National Center for Advancing Translational Sciences (NCATS), 2021).
In all, about 580,000 compounds went through this assay and about 6,100 (1.1%) were called active. Inconclusive means that the source gave no clear call. Such entries were picked first, then a sample of the others. The call rests on the fitted dose curve; in most records, active means well fitted inhibition curve with a large enough effect; inconclusive means small, poorly fitted or top-dose-only effect, or another doubt; inactive means no such curve, though single readings can be large or run the other way. Where the call is inconclusive, the potency comes from a doubtful curve fit.

By UniProt entry, the sequences of proteins in these tests, tags left out. Where a name states a change or a piece, a line headed by the entry shows the natural chain unless it says otherwise.
UniProt P18054: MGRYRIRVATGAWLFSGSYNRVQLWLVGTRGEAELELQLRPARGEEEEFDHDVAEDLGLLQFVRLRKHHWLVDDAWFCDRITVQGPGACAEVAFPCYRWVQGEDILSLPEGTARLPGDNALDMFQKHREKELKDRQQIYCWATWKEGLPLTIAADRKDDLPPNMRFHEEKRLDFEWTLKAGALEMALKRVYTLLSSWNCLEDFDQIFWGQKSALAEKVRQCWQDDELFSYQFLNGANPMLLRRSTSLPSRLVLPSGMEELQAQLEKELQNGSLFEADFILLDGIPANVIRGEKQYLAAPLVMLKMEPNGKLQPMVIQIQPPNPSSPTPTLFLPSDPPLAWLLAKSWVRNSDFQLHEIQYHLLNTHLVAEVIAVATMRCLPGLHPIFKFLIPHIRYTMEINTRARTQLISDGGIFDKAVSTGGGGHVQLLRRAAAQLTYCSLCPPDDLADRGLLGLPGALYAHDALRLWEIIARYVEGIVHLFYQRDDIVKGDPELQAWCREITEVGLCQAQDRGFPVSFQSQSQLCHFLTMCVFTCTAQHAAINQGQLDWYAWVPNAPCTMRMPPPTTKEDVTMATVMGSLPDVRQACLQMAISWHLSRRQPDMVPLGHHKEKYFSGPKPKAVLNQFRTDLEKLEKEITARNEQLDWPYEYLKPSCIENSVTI

Biological target: Polyunsaturated fatty acid lipoxygenase ALOX12 (Homo sapiens) (UniProt P18054)
Experiment: Primary qHTS assay for inhibitors of human arachidonate 12S-lipoxygenase (ALOX12): Round 2
Conditions: purified 12hLO, xylenol orange hydroperoxide absorbance; activity change, negative = inhibition: at 108 µM (top of the series) unless noted
In short: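 Purified human 12hLO (150 nM final) in 25 mM Hepes, 0.01% Triton X-100, pH 7.0 was preincubated 15 min at room temperature with compound. Then 40 uM arachidonic acid was added, 30 min. Hydroperoxide was read by Fe-XO absorbance ratio 573/405 nm.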
On the % scale 0 is the no-effect control and ±100 the full control effect; potency means the concentration at half of the fitted maximal effect.

| SMILES | Potency | activity change, negative = inhibition |
| --- | --- | --- |
| O=[N+]([O-])c1ccc(NC(=S)NCc2ccncc2)cc1 | inconclusive: 100 µM [inhibitor, partial curve, poor fit] |  |
| O=C(COc1cccnc1[N+](=O)[O-])Nc1ncc(Cl)cc1Cl | inconclusive: 35.5 µM [inhibitor, partial curve, poor fit] |  |
| CC(C)C(=O)Nc1sc2c(c1C(N)=O)CCN(Cc1ccccc1)C2 |  | inactive: 36.9% |
| COc1ccc(-c2c(C#Cc3ccc(N(C)C)cc3)c3ccccc3n2C)cc1 | inconclusive: 44.7 µM [inhibitor, partial curve, poor fit] |  |
| CC(C)CN(C(=O)COC(=O)C(C)N1C(=O)c2ccccc2C1=O)c1c(N)n(Cc2ccccc2)c(=O)[nH]c1=O (stereo unspecified) | inconclusive: 56.2 µM [inhibitor, partial curve, poor fit] |  |
| CCOC(=O)N1CCC(NC(=O)CC2C(=O)NCCN2Cc2ccccc2)CC1 (stereo unspecified) | inconclusive: 79.4 µM [inhibitor, single point] |  |
| CC1=NN(C(=O)c2ccc(Cn3nc(C)c([N+](=O)[O-])c3C)cc2)C(O)(C(F)(F)F)C1 (stereo unspecified) |  | inactive: 12.1% |
| Cn1cccc1CN1CCCC(C(=O)NCc2ccccc2)CCNC(=O)CC1 (stereo unspecified) |  | inactive: 47.5% |
| O=C1COC[C@H]([C@H](O)c2ccc(NC(=O)c3ccnc(Cl)c3)cc2)N1 | inconclusive: 70.8 µM [inhibitor, partial curve, poor fit] |  |
| C[C@@H](c1ccccc1)N1C[C@@H](COCc2ccccc2)Oc2cc(N3CC[C@@H](O)C3)ccc2S1(=O)=O | inconclusive: 100 µM [inhibitor, single point] |  |
| O=C(COC(=O)c1ccccc1-c1ccc(C(F)(F)F)cc1)c1cccc([N+](=O)[O-])c1 | inconclusive: 50.1 µM [inhibitor, partial curve, poor fit] |  |
| CCN1CCN(CCCCOc2ccccc2F)CC1 | inconclusive: 1.26 µM [inhibitor, full curve] |  |
| CCCCOc1ccc(-c2nc(=S)[nH][nH]2)cc1 | inconclusive: 39.8 µM [inhibitor, partial curve] |  |
| CC(NC(=O)Cc1cccc2cccnc12)c1ccccc1 (stereo unspecified) |  | inactive: -1.03% |
| O=S(=O)(NCc1ccco1)c1ccc2c(c1)Cc1ccccc1-2 | inconclusive: 56.2 µM [inhibitor, partial curve, poor fit] |  |
| O=C(CCc1ncc(-c2ccc(F)cc2)o1)NCc1cccc(Cl)c1 | inconclusive: 2 µM [inhibitor, full curve, poor fit] |  |
| COc1ccc2nc(NC(=O)CSc3nnc4n3C(C)(C)Cc3ccccc3-4)sc2c1 | inconclusive: 14.1 µM [inhibitor, partial curve, poor fit] |  |
| CN(Cc1ccccn1)C(=O)CC1C(=O)NCCN1Cc1ccc(F)cc1Cl (stereo unspecified) |  | inactive: 39.7% |
| Cc1ccc(NC(=O)CN(C)C(=O)c2ccc(OCc3cn4ccccc4n3)cc2)cc1 | inconclusive: 112 µM [inhibitor, single point] |  |
| Brc1ccccc1OCCCN1CCOCC1 | inconclusive: 0.316 µM [inhibitor, full curve, poor fit] |  |
| O=C(/C=C/c1ccccc1)Nc1ccc(N2CCCCC2)cc1 |  | inactive: -23.4% |
| CCCNc1nc(-c2ccc3c(c2)CCCN3S(C)(=O)=O)cs1 | inconclusive: 11.2 µM [inhibitor, full curve, poor fit] |  |

| SMILES | Potency | activity change, negative = inhibition |
| --- | --- | --- |
| FC(F)(F)c1ccc(Sc2ccc(C(F)(F)F)cn2)nc1 | inconclusive: 63.1 µM [inhibitor, partial curve, poor fit] |  |
| CN(CCc1ccccc1)C1CCCN(S(=O)(=O)CC(F)(F)F)C1 (stereo unspecified) | inconclusive: 3.55 µM [inhibitor, full curve, poor fit] |  |
| CCCNCc1ccsc1 | inconclusive: 39.8 µM [inhibitor, partial curve, poor fit] |  |
| CN1CCC(=C2c3ccccc3CCc3sccc32)CC1 | inconclusive: 9.68 µM [inhibitor, partial curve, poor fit] |  |
| S=C(NCCc1c[nH]c2ccccc12)Nc1cccc(Cl)c1 | inconclusive: 126 µM [inhibitor, partial curve, poor fit] |  |
| COc1ccc(NC(=O)CSCC(=O)N(C)Cc2ccc(Cl)c(Cl)c2)cc1 |  | inactive: 4.79% |
| Cc1cccc(N2CCN(C(=O)c3nn(Cc4ccccc4)c(=O)c4ccccc34)CC2)c1C | inconclusive: 50.1 µM [inhibitor, partial curve, poor fit] |  |
| Cc1ccccc1C(=O)NCCN1CCC(n2c(=O)[nH]c3ccccc32)CC1 | inconclusive: 44.7 µM [inhibitor, partial curve, poor fit] |  |
| CCS(=O)(=O)C(=C(Nc1ccc(OC)cc1)Nc1ccc(OC)cc1)S(=O)(=O)CC |  | inconclusive: -35.9% [inhibitor] |
| CCc1ccc(NC(=O)C(C)Oc2nnc(-c3cccs3)c(-c3cccs3)n2)cc1 (stereo unspecified) |  | inactive: 132% |
| CCn1c(SCc2nc3ccccc3s2)nc2cc(S(=O)(=O)N3CCOCC3)ccc21 |  | inactive: 26.7% |
| Clc1ccc(C2CC(c3ccc(Br)cc3)=NO2)cc1 (stereo unspecified) |  | inactive: -11.3% |
| Fc1c(F)c(C(F)(F)F)c(F)c(F)c1N/N=C\c1cccs1 | inconclusive: 17.8 µM [inhibitor, full curve, poor fit] |  |
| CCN(CC)CCN1C(=O)C(=O)/C(=C(/O)c2ccc3c(c2)CC(C)O3)C1c1ccc(OC)cc1 (stereo unspecified) | inconclusive: 112 µM [inhibitor, single point] |  |
| O=C(O)c1ccccc1-c1ccc(C=c2sc3nc4cc(Br)cnc4n3c2=O)o1 | active: 7.94 µM |  |
| COc1ccc(Nc2ncc3c(n2)CC(c2ccc(C)cc2)CC3=O)cc1 (stereo unspecified) | inconclusive: 89.1 µM [inhibitor, single point] |  |
| Cc1ccccc1NC(=O)Cn1c(C)cc(=O)n2nc(-c3cccs3)nc12 |  | inactive: 2.91% |
| N=c1n(CCCOc2ccccc2Cl)c2ccccc2n1CC(N)=O | inconclusive: 8.91 µM [inhibitor, partial curve, poor fit] |  |
| Nc1nc(NCc2c(F)cccc2Cl)nn1-c1ccccc1 | inconclusive: 35.5 µM [inhibitor, partial curve, poor fit] |  |
| NC(=O)CN1C(=O)CO[C@H]2CN(Cc3ccc(Cl)cc3)C[C@H]21 | inconclusive: 39.8 µM [inhibitor, partial curve, poor fit] |  |
| CSc1cccc(NC(=O)CSc2nnc(C(C)N3C(=O)COc4ccccc43)n2C)c1 (stereo unspecified) |  | inactive: -11.4% |
| Brc1ccc(C2CC(c3ccccc3)=Nc3ccccc3N2)cc1 (stereo unspecified) | inconclusive: 50.1 µM [inhibitor, partial curve, poor fit] |  |

| SMILES | Potency | activity change, negative = inhibition |
| --- | --- | --- |
| CC(=O)Nc1ccc(NC(=O)CSc2nccn2Cc2ccc3c(c2)OCO3)cc1 |  | inconclusive: -30% [inhibitor] |
| CN(CC(=O)Nc1cccc(F)c1)C(=O)c1cc(-c2ccco2)nc2ccccc12 | active: 39.8 µM |  |
| O=C(COc1ccccc1Cl)NCc1ccco1 |  | inactive: 0% |
| O=C(Nc1ccc(N2CCN(C(=O)c3ccccc3)CC2)cc1)c1cc([N+](=O)[O-])ccc1N1CCOCC1 |  | inactive: -12.2% |
| CC(C)(c1nnnn1-c1ccccc1)N1CCOCC1 |  | inactive: 3.78% |
| CCOc1ccccc1CNC(=O)CCc1c(C)nn(-c2ccc(N3CCCCC3)nn2)c1C |  | inactive: -10% |
| CCCCC(=O)Nc1ccc(C(=O)NNC(=S)NC(=O)c2ccco2)cc1 |  | inactive: 5.84% |
| Cc1onc(-c2ccccc2)c1C(=O)Nc1ccc(NC(=O)c2c(-c3ccccc3)noc2C)cc1 |  | inactive: 15.1% |
| c1coc(-c2nc3nc4ccccc4nc3n2CC2CCCO2)c1 (stereo unspecified) |  | inactive: -2.24% |
| COc1ccc(/C=N/NC(=O)c2cc(-c3ccc(C)cc3C)nc3ccccc23)cc1COC(C)=O |  | inactive: -14.2% |
| N#C/C(=C/c1ccc(OCc2ccccc2)cc1)C(=O)NC1CCCCC1 |  | inactive: 0% |
| CN(C(=O)/C=C/c1cnc2ccccc2c1)C1CCCCC1 | inconclusive: 70.8 µM [inhibitor, partial curve, poor fit] |  |
| O=C(/C=C/c1ccc(NC(=O)c2ccccc2-c2ccccc2C(=O)O)cc1)c1ccccc1 | inconclusive: 56.2 µM [inhibitor, partial curve, poor fit] |  |
| Cc1ccc(C(=O)NNC(=O)c2ccc(NC(=O)C(C)(C)C)cc2)cc1 |  | inactive: 0.301% |
| CCN(CCS(=O)(=O)c1ccc(Br)cc1)Cc1nc2ccccc2c(=O)[nH]1 | inconclusive: 100 µM [inhibitor, single point] |  |
| CCc1nc2ccccc2c(C(=O)OCC(=O)NC(=O)NCc2ccccc2)c1C | inconclusive: 44.7 µM [inhibitor, partial curve, poor fit] |  |
| Cc1ccc(S(=O)(=O)c2cnc(SCC(=O)Nc3ccc4c(c3)OCCO4)[nH]c2=O)cc1Cl | inconclusive: 39.8 µM [inhibitor, partial curve] |  |
| CN(C)CC(=O)N[C@@H]1C=C[C@@H](CC(=O)NCCN2CCCCC2)O[C@@H]1CO | inconclusive: 100 µM [inhibitor, single point] |  |
| COc1cc(CN2CCC3(Cc4ccccc4CNC3=O)C2)cc(OC)c1 (stereo unspecified) | inconclusive: 39.8 µM [inhibitor, partial curve, poor fit] |  |
| O=S(=O)(NCC(c1ccco1)N1CCOCC1)c1ccc(Br)cc1 (stereo unspecified) | inconclusive: 35.5 µM [inhibitor, partial curve, poor fit] |  |
| CCc1cc(-c2n[nH]c(C)c2-c2ccc3c(c2)OCCO3)c(O)cc1O | inconclusive: 21.7 µM [inhibitor, partial curve, poor fit] |  |
| Cn1c(=O)n(C)c2cc(Sc3ccccc3Cl)c(NS(C)(=O)=O)cc21 | inconclusive: 89.1 µM [inhibitor, partial curve, poor fit] |  |

An excerpt from above in order of length of the SMILES, smallest number first.

| SMILES | Potency | activity change, negative = inhibition |
| --- | --- | --- |
| O=C(COc1ccccc1Cl)NCc1ccco1 |  | inactive: 0% |
| c1coc(-c2nc3nc4ccccc4nc3n2CC2CCCO2)c1 (stereo unspecified) |  | inactive: -2.24% |
| Cc1ccc(S(=O)(=O)c2cnc(SCC(=O)Nc3ccc4c(c3)OCCO4)[nH]c2=O)cc1Cl | inconclusive: 39.8 µM [inhibitor, partial curve] |  |
